At least one compound was matched to its structure with a doubt left.
Experiments:
[1] = test system: T-REx™-G2A-NFAT-bla Freestyle™293F cells; assay: T-REx G2A NFAT-bla Freestyle 293F beta-lactamase reporter assay (inducer dose response)
Protocol: (§1) In order to control the levels of G2A expression, G2A was placed under the control of an inducible promoter using Invitrogen's T-REx™ system. To again assess feasibility, pcDNA 5 G2A/TO was transiently transfected into CRE-bla Freestyle™ and NFAT-bla Freestyle™ cell lines stably expressing the T-REx™ Tet repressor plasmid (pcDNA6/TR; e.g., catalog# V1025-20, Invitrogen, Carlsbad, Calif.). The transfected cells were then treated with 10 ug/mL, 1 ug/mL, or 100 ng/mL tetracycline for 24 h to induce G2A expression. […] Stable pools of cells were created in both the TR CRE-bla and TR NFAT-bla Freestyle™293F backgrounds.
(§2) Stimulation Kinetics—Selected pools of both CRE-bla and NFAT-bla T-REx™ G2A Freestyle™ cells were stimulated with tetracycline for 3, 4, 5, or 24 h and loaded for 2 h with 1 μM LiveBLAzer™-FRET B/G substrate.
To improve the balance between tetracycline-induced signaling and cell death by testing shorter induction times, lower tetracycline concentrations and altered culture conditions were utilized to promote cell health. A 16 h tetracycline stimulation time was attempted on the pools from the first sort. Cells were plated at 10,000 cells/well 24 hours prior to assay in DMEM+10% dFBS and incubated at 37° C./5% CO2 until time of assay. The cells were stimulated for 16 hours (e.g., overnight) with a dilution series of the tetracycline. Following stimulation, the cells were loaded for 2 hours at room temperature in the dark with LiveBLAzer™-FRET B/G loading solution containing 1 μM substrate. This assay was done in Poly-D-Lysine coated plates.
Since G2A has no known agonists, doxycycline and tetracycline were compared as inducers of the assay. An antibiotic selected pool of cells were plated at 10,000 cells/well 24 hours prior to assay in DMEM+10% dFBS and incubated at 37° C./5% CO2 until time of assay. The cells were stimulated with a dilution series of each compound for 16 hours at 37° C./5% CO2 and loaded for 2 hours at room temperature in the dark with LiveBLAzer™-FRET B/G loading solution containing 1 μM substrate. […]

[2] = test system: T-REx™ G2A CRE-bla Freestyle™ 293F cells
Protocol: as §1, §2

[3] = selected pool, 3, 4, or 5 hours of tetracycline stimulation
[4] = selected pool, 24 h tetracycline stimulation
[5] = transiently transfected, 10 ug/mL, 1 ug/mL or 100 ng/mL tetracycline, 24 h

Q: Which beta-lactamase activity [1, 3] does the source give for `CN(C)[C@@H]1C(O)=C(C(N)=O)C(=O)[C@@]2(O)C(O)=C3C(=O)c4c(O)cccc4[C@@](C)(O)[C@H]3C[C@@H]12` [Tetracycline] here?
A: No beta-lactamase activity

Q: What about the beta-lactamase signal [1, 4] of the same molecule?
A: did produce a beta-lactamase signal

Q: What about the “beta-lactamase response to induction” value [1, 5] of the same molecule?
A: response to tetracycline induction above the unstimulated transfected cells

Q: And the beta-lactamase activity [2, 3]?
A: No beta-lactamase activity

Q: And the beta-lactamase signal [2, 4]?
A: did produce a beta-lactamase signal

Q: What about the “beta-lactamase response to induction” value [2, 5] of the same molecule?
A: response to tetracycline induction above the unstimulated transfected cells

Reference: patent US20070218456A1, “CELLULAR ASSAYS FOR SIGNALING RECEPTORS” (INVITROGEN CORPORATION, priority 2006, published 2007)
